Test results as given in PMC5065051, “Genetic and Biochemical Approaches for In Vivo and In Vitro Assessment of Protein Oligomerization: The Ryanodine Receptor Case Study” (Journal of Visualized Experiments : JoVE, 2016).
No constants are given. Whether binding was seen depends on the method and setting. For part of these data: Binding seen in cells or lysates may run through a third protein. Some results given as binding are weak or reduced against the parent protein; the word gives no strength. One block for each molecule: values may come before it.

What was measured:
[1] = biological target: RyR2 N-terminal fragment (RyR2 residues 1 - 906), GAL4 fusions for yeast two-hybrid (human) (UniProt Q92736); experiment: two-hybrid; GAL4 system in yeast; colony-lift filter paper β-Gal assay (X-Gal), 30 °C; bait: GAL4 DNA-BD fusions, prey: AD4L
[2] = biological target: RyR2 N-terminal fragment (RyR2 residues 1 - 906), GAL4 fusions for yeast two-hybrid (human) (UniProt Q92736); experiment: two-hybrid; GAL4 system in yeast; quantitative liquid culture β-Gal assay (ONPG), 30 °C; normalized against the positive control pVA3 + pTD1
[3] = biological target: RyR2 N-terminus domain (residues 1 - 906), cMyc-tagged (BT4L) or HA-tagged (AD4L), expressed in HEK293 (human) (UniProt Q92736); experiment: co-IP; HA-tagged AD4L immunoprecipitated with Ab^HA and Protein-A sepharose from CHAPS-solubilized, dithiothreitol-treated lysate of co-transfected HEK293 cells; blot with Ab^cMyc; non-immune rabbit IgG as negative control

Molecule: RyR2 N-terminal fragment (RyR2 residues 1 - 906), GAL4 fusions for yeast two-hybrid (from UniProt Q92736 1-906) (domain or fragment)
binding [1]: binds
binding [2]: binds

binding [3]: binds
B1: RyR2 N-terminus domain (residues 1 - 906), cMyc-tagged (BT4L) or HA-tagged (AD4L), expressed in HEK293 (domain or fragment, human, UniProt Q92736 1-906, looked up)
chain: MADGGEGEDEIQFLRTDDEVVLQCTATIHKEQQKLCLAAEGFGNRLCFLESTSNSKNVPPDLSICTFVLEQSLSVRALQEMLANTVEKSEGQVDVEKWKFMMKTAQGGGHRTLLYGHAILLRHSYSGMYLCCLSTSRSSTDKLAFDVGLQEDTTGEACWWTIHPASKQRSEGEKVRVGDDLILVSVSSERYLHLSYGNGSLHVDAAFQQTLWSVAPISSGSEAAQGYLIGGDVLRLLHGHMDECLTVPSGEHGEEQRRTVHYEGGAVSVHARSLWRLETLRVAWSGSHIRWGQPFRLRHVTTGKYLSLMEDKNLLLMDKEKADVKSTAFTFRSSKEKLDVGVRKEVDGMGTSEIKYGDSVCYIQHVDTGLWLTYQSVDVKSVRMGSIQRKAIMHHEGHMDDGISLSRSQHEESRTARVIRSTVFLFNRFIRGLDALSKKAKASTVDLPIESVSLSLQDLIGYFHPPDEHLEHEDKQNRLRALKNRQNLFQEEGMINLVLECIDRLHVYSSAAHFADVAGREAGESWKSILNSLYELLAALIRGNRKNCAQFSGSLDWLISRLERLEASSGILEVLHCVLVESPEALNIIKEGHIKSIISLLDKHGRNHKVLDVLCSLCVCHGVAVRSNQHLICDNLLPGRDLLLQTRLVNHVSSMRPNIFLGVSEGSAQYKKWYYELMVDHTEPFVTAEATHLRVGWASTEGYSPYPGGGEEWGGNGVGDDLFSYGFDGLHLWSGCIARTVSSPNQHLLRTDDVISCCLDLSAPSISFRINGQPVQGMFENFNIDGLFFPVVSFSAGIKVRFLLGGRHGEFKFLPPPGYAPCYEAVLPKEKLKVEHSREYKQERTYTRDLLGPTVSLTQAAFTPIPVDTSQIVLPPHLERIREKLAENIHELWVMNKIELGWQYGP
notes: ryanodine receptor 2 (RyR2), human, residues 1-906; Two copies of the same stretch, each with ONE tag: in the co-IP cMyc-BT4L and HA-AD4L were co-expressed; in the cross-linking cMyc-BT4L was expressed alone; also called cMyc-BT4L; source: HEK293, transiently transfected (calcium phosphate), in lysate or homogenate
